Data published in PubChem BioAssay AID1347075 (National Center for Advancing Translational Sciences (NCATS), 2019).
Screen size: about 400,000 compounds; about 5,500 (1.4%) were called active. The shares of active, inactive and inconclusive entries below differ from those in the screen. Calls come from the whole dose curve; as a rule, active = well fitted cell-killing curve with a large enough effect; inconclusive = small, poorly fitted or top-dose-only effect, or effect the other way; inactive = flat fitted curve, though single readings scatter. Potencies of inconclusive entries are doubtful fits and often do not repeat.

Assay: qHTS assay for MDR1-selective chemotherapeutics: Primary screen using the parental adenocarcinoma cell KB-3-1; note: nearly all actives have a fitted effect of over 60% in size
Conditions: KB-3-1 viability, CellTiter-Glo ATP luminescence, 72 h; activity change, negative = cytotoxic: at 46.1 µM (top of the series)
Method in brief: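 72 h, 37 °C compound treatment of KB-3-1 parental cells; CellTiter-Glo added, 10 min, luminescence read. Data corrected against DMSO-only plates and normalized before curve fitting.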
% is set by controls: 0 for no effect and ±100 for the full control effect; potency is the fitted concentration of half-maximal effect.

| Compound | activity change, negative = cytotoxic | Potency |
| --- | --- | --- |
| COc1cccc(CN(C)C(=O)CNC(=O)c2cccs2)c1OC | inactive: -1.45% |  |
| CC(C)(C)NC(=O)C(c1ccccc1F)n1c(=O)c(-c2cc3ccccc3[nH]2)nc2ccccc21 (configuration not stated) |  | inconclusive: 18.4 µM [cytotoxic, single point] |
| CCCCC(=O)N/N=C(/C)C1=C(C)C(C)(C)OC1=O | inactive: -1.99% |  |
| O=c1cc(CNc2cc(C(F)(F)F)cc(C(F)(F)F)c2)nc2sccn12 |  | active: 23.1 µM |
| C#CC[N+](C)(C)CC#Cc1ccccc1 |  | inconclusive: 18.4 µM [cytotoxic, single point] |
| O=C(CNC1CCN(Cc2ccccc2)CC1)Nc1ccc(S(=O)(=O)N2CCCCC2)cc1 | inactive: -0.0343% |  |
| Cc1ccc(N(C)S(=O)(=O)c2ccc3c(c2)CCC(=O)N3)cc1C |  | inconclusive: 32.6 µM [cytotoxic, partial curve, poor fit] |
| CCOc1ccccc1N(CC)C(=O)Cn1ncc2c([nH]c3ccccc32)c1=O |  | inconclusive: 11.6 µM [cytotoxic, partial curve, poor fit] |
| COC(=O)c1sc2cnccc2c1N | inactive: 1.96% |  |
| O=C(O/C(=C/c1ccccc1)C(F)(F)F)c1ccccc1 | inactive: 14.1% |  |
| CCc1nc2ccc(C(=O)NCc3ccccc3OC)cn2c1N(CC)Cc1cccc(Br)c1 |  | inconclusive: 18.4 µM [cytotoxic, single point] |
| CCC1C(c2ccccc2)=CCC(C(=O)O)C1C (configuration not stated) | inactive: -5.6% |  |
| CCCCOC(=O)Nc1nnc(CCc2ccccc2)s1 |  | inconclusive: 13 µM [rising, partial curve, poor fit] |
| COc1cccc(Cn2cnc(-c3ccccc3OC)c2C2CC2)c1 |  | inconclusive: 29.1 µM [cytotoxic, single point] |
| CCN(CC(=O)Nc1cc(S(=O)(=O)N2CCCCC2)ccc1Cl)Cc1ccccc1 |  | inconclusive: 29.1 µM [cytotoxic, single point] |
| O=C(Nc1ccc(N2CCN(C(=O)c3ccco3)CC2)cc1)c1ccc2c(c1)OCO2 |  | active: 5.8 µM |
| Cc1ccc(NC(=O)CCSc2nnnn2-c2ccc3c(c2)OCO3)cc1C | inactive: 19.8% |  |
| NC(=S)N1OC[C@@H]2COc3ccc4ccccc4c3[C@@H]21 |  | inconclusive: 18.4 µM [cytotoxic, single point] |
| CCOC(=O)Nc1ccc(OC)c([N+](=O)[O-])c1 | inactive: 7.19% |  |
| O=C1Nc2ccc(C(=O)O)c(O)c2C1=O |  | inconclusive: 0.58 µM [rising, full curve, poor fit] |
| COc1ccc(Nc2ncnc3sc(-c4ccccc4)cc23)cc1 |  | inconclusive: 20.6 µM [cytotoxic, single point] |
| O=C1N/C(=N\N=C\c2cccs2)SC1Cc1cccc(Cl)c1Cl (configuration not stated) |  | active: 5.17 µM |
| Cc1c(C(=O)NCc2ccc(F)cc2)sc(=O)n1Cc1ccc(C(=O)c2ccccc2)cc1 |  | inconclusive: 29.1 µM [cytotoxic, single point] |
| O=C(c1ccccc1)N1CCN(CCc2ccncc2)CC1 | inactive: -2.01% |  |

Compounds above containing a COOH group:

| Compound | activity change, negative = cytotoxic | Potency |
| --- | --- | --- |
| CCC1C(c2ccccc2)=CCC(C(=O)O)C1C (configuration not stated) | inactive: -5.6% |  |
| O=C1Nc2ccc(C(=O)O)c(O)c2C1=O |  | inconclusive: 0.58 µM [rising, full curve, poor fit] |

Continuation.

| Compound | activity change, negative = cytotoxic | Potency |
| --- | --- | --- |
| COC(=O)c1cccc(Cn2c(Cl)c(/C=N/Nc3ccccc3C)sc2=O)c1 | inactive: -0.852% |  |
| CCC(=O)N1CCC1(C)C(=O)Nc1ccc(Cl)c(Cl)c1 (configuration not stated) | inactive: -0.484% |  |
| CN(C)c1ccc(N=Nc2ccnc3ccccc23)cc1 |  | inconclusive: 18.4 µM [rising, single point] |
| Cc1ccccc1OCCOC(=O)c1ccc(S(=O)(=O)N2CCCC2)cc1 | inactive: 7.12% |  |
| COc1ccc(/C=C/C(=O)NC(=S)NN2CCCCC2c2cccnc2)cc1 (configuration not stated) | inconclusive: -7.32% |  |
| Cc1ccc(NC(=O)Cc2ccc(-n3c(C)nc4cccnc43)cc2)c(Cl)c1 |  | active: 18.4 µM |
| CC(=O)Nc1cccc(-c2cccc3nccn23)c1 | inactive: 0% |  |
| CC(C)(C)c1ccc(/C=C/C(=O)c2ccc(NC3=NCCCS3)cc2)cc1 |  | inconclusive: 25.9 µM [cytotoxic, partial curve, poor fit] |
| CC(=O)c1ccc(-c2cnc3c(NC=O)cc(-c4ccccc4Oc4ccccc4)cn23)cc1 |  | active: 11.6 µM |
| CC1(C)CC2CC(C)(CN2S(=O)(=O)c2ccccc2[N+](=O)[O-])C1 (configuration not stated) | inactive: -14.4% |  |
| Cc1ccc(Cl)cc1N1CCN(S(=O)(=O)c2ccc3c(c2)oc(=O)n3C)CC1 | inactive: -22.2% |  |
| COc1ccc(NC(=S)Nc2ccccc2OC)c(OC)c1 | inactive: 26.8% |  |
| Cc1ccc(CNC(=O)C(=O)Nc2c3c(nn2-c2ccccc2)CSC3)cc1 | inactive: 8.12% |  |
| COc1ccc(CNc2ncc(-c3ccccc3)n2C)c2ccccc12 |  | inconclusive: 25.9 µM [cytotoxic, single point] |
| CCOC(=O)C1CCN(C(=O)CCc2nnc3ccc(NCc4ccco4)nn23)CC1 |  | inconclusive: 20.6 µM [cytotoxic, partial curve, poor fit] |
| N#Cc1cnn2c(N)c(-c3ccc(Cl)cc3)cnc12 |  | inconclusive: 5.8 µM [cytotoxic, full curve] |
| COc1cc(/C=N/N=C(N)N)ccc1OCc1ccccc1Cl |  | inconclusive: 20.6 µM [cytotoxic, single point] |
| CC(C)(C)n1nnnc1C(c1ccccc1)N1CCN(c2c(Cl)cncc2Cl)CC1 (configuration not stated) |  | inconclusive: 16.4 µM [cytotoxic, single point] |
| Cc1ccc(CN2CCC(c3nc4ccc(Cl)cc4[nH]3)CC2)cc1 | inactive: -19% |  |
| O=C(Nc1c(Cl)cc(Cl)cc1C(=O)NCc1cccnc1)c1ccc(Cl)cc1Cl |  | inconclusive: 16.4 µM [cytotoxic, single point] |
| C(=C\c1ccnc2ccccc12)/c1ccc(N2CCN(c3ccc(/C=C/c4ccnc5ccccc45)cc3)CC2)cc1 |  | inconclusive: 13 µM [cytotoxic, partial curve, poor fit] |
| O=C(Nc1ccc2c(c1)OCO2)c1cccs1 |  | inconclusive: 32.6 µM [cytotoxic, single point] |
| COc1cc(C2C(C#N)=C(N)Oc3c2ccc2ccccc32)ccc1OCC(=O)Nc1ccccc1C (configuration not stated) |  | inconclusive: 13 µM [cytotoxic, partial curve, poor fit] |
| COc1cc(Cl)c(S(=O)(=O)NCCc2c(C)[nH]c3c(C)cccc23)cc1Cl | inconclusive: 2.8% |  |

| Compound | activity change, negative = cytotoxic | Potency |
| --- | --- | --- |
| COc1ccc([C@@H](OC)[C@@]2(Cc3ccc(O)cc3)N=C(N)N(C)C2=O)cc1 | inactive: 4.57% |  |
| COc1ccc(N2CCN(Cc3nc(N)nc(Nc4ccc(C)c(Cl)c4)n3)CC2)cc1 | inactive: -13.7% |  |
| COc1cc(NC(=O)c2ccc(F)cc2)ccc1NC(=O)c1cc2ccccc2o1 | inactive: -3.73% |  |
| c1ccc(C2CCC(N3CCN(c4ccccc4)CC3)CC2)cc1 (configuration not stated) | inactive: -2.15% |  |
| O=C(COc1ccc(F)cc1)N(c1ccccn1)C1CCCCC1 | inactive: -17.7% |  |
| O=C(NC(c1ccc(-c2ccccc2)cc1)c1cnccn1)C1CCN(Cc2cccc(C(F)(F)F)c2)CC1 (configuration not stated) |  | inconclusive: 29.1 µM [cytotoxic, single point] |
| Cc1[nH]nc2c1C(c1ccc(-c3ccc(Cl)cc3)o1)C(C#N)=C(N)O2 (configuration not stated) |  | inconclusive: 23.1 µM [cytotoxic, single point] |
| CCOc1ccc(-c2cc(CCCC(=O)Nc3cc(OC)ccc3OC)no2)cc1 | inactive: 7.74% |  |
| O=C(NCc1ccccc1)C(=O)Nc1nc(C23CC4CC(CC(C4)C2)C3)cs1 |  | inconclusive: 16.4 µM [cytotoxic, partial curve, poor fit] |
| Nc1ccc(S(=O)(=O)Nc2cnc3c(Cl)cccc3n2)cc1 |  | inconclusive: 0.651 µM [rising, full curve] |
| O=C(Nc1ccc(S(=O)(=O)N2CCCC2)cc1)c1ccc(CN2CCc3ccccc3C2)cc1 |  | inconclusive: 2.31 µM [cytotoxic, full curve] |
| COc1ccc(CNc2nc(NCc3ccc(OC)cc3)c3[nH]cnc3n2)cc1 |  | inconclusive: 29.1 µM [cytotoxic, single point] |
| Cc1ccc(C(c2sc3ncnn3c2O)N2CC(C)CC(C)C2)cc1 (configuration not stated) |  | inconclusive: 0.0326 µM [rising, full curve] |
| CCC(c1nnnn1Cc1ccc2c(c1)OCO2)N1CCN(c2ccc(OC)cc2)CC1 (configuration not stated) |  | inconclusive: 25.9 µM [cytotoxic, partial curve, poor fit] |
| COC(=O)[C@@]12C[C@@H](CC(=O)NCCC(C)C)C(=O)N(Cc3cccc4ccccc34)C1=CCC(C)(C)C2 |  | active: 20.6 µM |
| O=C(c1ccc(Cn2c(=O)[nH]c3ccccc3c2=O)cc1)N1CCN(c2ccc(Cl)cc2)CC1 |  | inconclusive: 29.1 µM [cytotoxic, single point] |
| Cc1ccc(-c2c[n+](CC(=O)N3c4ccccc4Sc4ccccc43)c3n2CCC3)cc1 |  | inconclusive: 29.1 µM [cytotoxic, single point] |
| COc1cc(CCC(=O)NCc2ccc3c(c2)CCN3C(=O)c2ccccc2)cc(OC)c1OC | inactive: -17.2% |  |
| COC(=O)COc1ccc(NC(=O)C(c2ccccc2)c2ccccc2)cc1 |  | inconclusive: 20.6 µM [cytotoxic, single point] |
| COc1ccccc1N1CCN(c2cc(=O)n(Cc3ccc(F)cc3)c(=O)[nH]2)CC1 |  | active: 5.17 µM |
| CCOC(=O)C1CCCN(C(=O)c2cccc(OC(F)(F)F)c2)CC1 (configuration not stated) | inactive: -0.312% |  |
| Cc1ccc(C)c(N2CCN(C(=O)C3CCCN(S(=O)(=O)c4c(C)noc4C)C3)CC2)c1 (configuration not stated) |  | inconclusive: 29.1 µM [cytotoxic, single point] |
| COc1ccc(C(C(=O)NC(C)(C)C)N(Cc2ccc(C)cc2)C(=O)CCC(=O)Nc2cc(C)on2)cc1 (configuration not stated) |  | inconclusive: 29.1 µM [cytotoxic, single point] |
| COc1ccccc1-c1oc2ccccc2c1C#CC1(N)CCCCC1 |  | inconclusive: 29.1 µM [cytotoxic, single point] |
